# Measured values: PMC4678811, “Assembly and dynamics of the U4/U6 di-snRNP by single-molecule FRET” (Nucleic Acids Research, 2015)
# No constants are given. Whether binding was seen depends on the method and setting. Some results given as binding are weak or reduced against the parent protein; the word gives no strength. Sequences can lack the tags named with a protein.
# T1: Prp3 (Saccharomyces cerevisiae) (UniProt Q03338)
# T1 sequence: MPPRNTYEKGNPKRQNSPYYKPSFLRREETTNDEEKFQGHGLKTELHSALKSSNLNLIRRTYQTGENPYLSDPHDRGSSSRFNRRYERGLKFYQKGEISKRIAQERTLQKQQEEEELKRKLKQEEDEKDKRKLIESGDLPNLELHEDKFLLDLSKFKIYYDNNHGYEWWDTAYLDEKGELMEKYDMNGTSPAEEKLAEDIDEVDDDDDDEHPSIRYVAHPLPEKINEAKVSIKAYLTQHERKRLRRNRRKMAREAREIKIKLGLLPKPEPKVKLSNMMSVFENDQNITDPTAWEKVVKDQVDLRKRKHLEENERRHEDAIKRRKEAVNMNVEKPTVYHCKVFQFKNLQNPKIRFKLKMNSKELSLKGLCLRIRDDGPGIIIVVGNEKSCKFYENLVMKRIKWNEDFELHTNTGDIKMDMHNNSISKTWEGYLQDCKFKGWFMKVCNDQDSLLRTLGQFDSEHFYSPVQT
# T2: LSm8 (Saccharomyces cerevisiae) (UniProt P47093)
# T2 sequence: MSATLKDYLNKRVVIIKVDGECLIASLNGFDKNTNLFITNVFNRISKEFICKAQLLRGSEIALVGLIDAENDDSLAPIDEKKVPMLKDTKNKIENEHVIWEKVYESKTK
# Molecular target: T1, Prp3 (Saccharomyces cerevisiae)
# Experiment: co-purification; Prp3-His8 and untagged Prp4 co-expressed in yeast BCY123; lysate on Ni-NTA, then hydroxyapatite, Resource-Q, Superdex-200 gel filtration (500 mM NaCl)
row,binding,Binder
1,binds,"Prp4 (protein, UniProt P20053 1-465) MSKYIALENLPVDLQHKGATQNESTADILKQLPHERLQAVLEKIPEEDLEVRRLLSILKKPEVVENEDVQQRRIRLAEILMVDEIDLENINNMENINGEEVDEEDDEDFFTPATSELIFARRFLINYSLERSRKRLQKEMERHQKFNTRQELLSRRTELQRMANLELAGSQLVSTKPISAVSLSTDDMVVATGSWAGDLQVLNSQTLQPLTQKLDSHVGKIGAIDWHPDSNNQMISCAEDGLIKNFQYSNEEGGLRLLGDLVGHERRISDVKYHPSGKFIGSASHDMTWRLWDASTHQELLLQEGHDKGVFSLSFQCDGSLVCSGGMDSLSMLWDIRSGSKVMTLAGHSKPIYTVAWSPNGYQVATGGGDGIINVWDIRKRDEGQLNQILAHRNIVTQVRFSKEDGGKKLVSCGYDNLINVYSSDTWLKMGSLAGHTDKIISLDISNNSHFLVSGGWDRSIKLWN"

# Molecular target: T2, LSm8 (Saccharomyces cerevisiae)
# Experiment: co-purification; seven LSm proteins co-expressed in yeast BCY123; lysate on calmodulin resin (CBP on LSm8, 500 mM NaCl, eluted with 2 mM EGTA), then Ni-NTA (His8 on LSm5, 500 mM NaCl, 500 mM urea), hydroxyapatite, Mono-Q
row,binding,Binder
1,binds,"LSm4 (1–106) (domain or fragment, UniProt P40070 1-106) MLPLYLLTNAKGQQMQIELKNGEIIQGILTNVDNWMNLTLSNVTEYSEESAINSEDNAESSKAVKLNEIYIRGTFIKFIKLQDNIIDKVKQQINSNNNSNSNGPGH"
2,binds,"LSm3 (protein, UniProt P57743 1-89) METPLDLLKLNLDERVYIKLRGARTLVGTLQAFDSHCNIVLSDAVETIYQLNNEELSESERRCEMVFIRGDTVTLISTPSEDDDGAVEI"
3,binds,"LSm6 (protein, UniProt Q06406 1-86) MSGKASTEGSVTTEFLSDIIGKTVNVKLASGLLYSGRLESIDGFMNVALSSATEHYESNNNKLLNKFNSDVFLRGTQVMYISEQKI"
4,binds,"LSm5 (protein, UniProt P40089 1-93) MSLPEILPLEVIDKTINQKVLIVLQSNREFEGTLVGFDDFVNVILEDAVEWLIDPEDESRNEKVMQHHGRMLLSGNNIAILVPGGKKTPTEAL"
5,binds,"LSm2 (protein, UniProt P38203 1-95) MLFFSFFKTLVDQEVVVELKNDIEIKGTLQSVDQFLNLKLDNISCTDEKKYPHLGSVRNIFIRGSTVRYVYLNKNMVDTNLLQDATRREVMTERK"
6,binds,"LSm7 (protein, UniProt P53905 1-115) MHQQHSKSENKPQQQRKKFEGPKREAILDLAKYKDSKIRVKLMGGKLVIGVLKGYDQLMNLVLDDTVEYMSNPDDENNTELISKNARKLGLTVIRGTILVSLSSAEGSDVLYMQK"
